According to article PMC2907397:
Results are given in words; binding and its absence hold for the method and conditions named. For some assays here: In cells and extracts the contact can be indirect. Some results given as binding are weak or reduced against the parent protein; the word gives no strength. For some assays here: Tags and fused reporters may be left off the sequences shown. Blank lines part the entries; values can stand above or below the molecule they belong to.

Experiments:
[1] = target: T1, myc-CIB1 (6xmyc-hCIB1) (human) (UniProt Q99828); assay: co-IP; as the co-IP of transfected HEK-293T cells but without MG132; data not shown
T1 sequence: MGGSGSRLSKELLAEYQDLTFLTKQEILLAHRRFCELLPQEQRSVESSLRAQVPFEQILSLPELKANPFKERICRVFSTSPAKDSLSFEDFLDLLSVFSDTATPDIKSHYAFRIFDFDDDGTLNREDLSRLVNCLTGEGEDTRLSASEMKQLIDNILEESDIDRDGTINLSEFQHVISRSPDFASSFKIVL

[2] = target: T1, myc-CIB1 (6xmyc-hCIB1) (human); assay: co-IP; HEK-293T co-transfected with pEGFP-N3-AID or pEGFP-N3 and p6xmyc-CIB1; 50 µM MG132 for 5 hours before harvest; lysis buffer 25 mM HEPES pH 7.4, 150 mM NaCl, 1% NP40; α-myc mAb and Protein G Sepharose at 4°C; blot with α-GFP polyclonal
[3] = target: T2, human AID residues 56–198 (yeast two-hybrid bait) (human) (UniProt Q9GZX7); assay: two-hybrid; large scale Gal4-based yeast two-hybrid screen; bait plasmid with human AID residues 56-198 against a tongue and tonsil cDNA library; hits identified by DNA sequencing
T2 sequence: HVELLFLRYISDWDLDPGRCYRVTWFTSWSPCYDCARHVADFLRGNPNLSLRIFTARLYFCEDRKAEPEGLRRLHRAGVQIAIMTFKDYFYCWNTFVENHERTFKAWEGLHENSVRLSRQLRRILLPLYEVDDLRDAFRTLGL

AID-STZ (human) = AID-STZ (human) (UniProt Q9GZX7); assay: pull-down; HEK-293T transfected with pAID-STZ or pEGFP-STZ, expressed for 48 hours; STZ proteins precipitated with IgG Sepharose, removed from the beads by TEV protease cleavage; blot with α-CIB1 and α-Strep
AID-EGFP (human) = AID-EGFP (human) (UniProt Q9GZX7); assay: co-IP; reciprocal: HEK-293T co-transfected with pEGFP-N3-AID or pEGFP-N3 and 6xmyc-hCIB1; lysates incubated with 20 µg RNase A, DNase I or BSA at 37°C for 20 minutes; α-GFP mAb (JL8) and Protein G Sepharose at 4°C; blot with α-myc

B1: residues 1–191 of the calcium and integrin binding protein 1 (CIB1) (yeast two-hybrid prey) (protein, UniProt Q99828 1-191)
chain: MGGSGSRLSKELLAEYQDLTFLTKQEILLAHRRFCELLPQEQRSVESSLRAQVPFEQILSLPELKANPFKERICRVFSTSPAKDSLSFEDFLDLLSVFSDTATPDIKSHYAFRIFDFDDDGTLNREDLSRLVNCLTGEGEDTRLSASEMKQLIDNILEESDIDRDGTINLSEFQHVISRSPDFASSFKIVL
binding [3]: binds

B3: myc-CIB1 (6xmyc-hCIB1) (protein, UniProt Q99828 1-191)
chain: MGGSGSRLSKELLAEYQDLTFLTKQEILLAHRRFCELLPQEQRSVESSLRAQVPFEQILSLPELKANPFKERICRVFSTSPAKDSLSFEDFLDLLSVFSDTATPDIKSHYAFRIFDFDDDGTLNREDLSRLVNCLTGEGEDTRLSASEMKQLIDNILEESDIDRDGTINLSEFQHVISRSPDFASSFKIVL
binding (AID-EGFP (human)): binds

Further lines, results first:

binding [1]: binds
binding [2]: binds
Molecule: AID-EGFP (from UniProt Q9GZX7 1-198)

binding (AID-STZ (human)): binds
B2: endogenous CIB1 (protein, UniProt Q99828 1-191)
chain: MGGSGSRLSKELLAEYQDLTFLTKQEILLAHRRFCELLPQEQRSVESSLRAQVPFEQILSLPELKANPFKERICRVFSTSPAKDSLSFEDFLDLLSVFSDTATPDIKSHYAFRIFDFDDDGTLNREDLSRLVNCLTGEGEDTRLSASEMKQLIDNILEESDIDRDGTINLSEFQHVISRSPDFASSFKIVL
